Test results published in US4940790A, “5-(3-alkyl-5-tert.butyl-4-hydroxyphenyl)-2-amino-6H-1,3,4-thiadiazines” (Hoechst Aktiengesellschaft, priority 1987, dated 1990).

Tested on: NMRI mice
Type: in vivo
Details: LD50 (i.p. mice) divided by ED50 (adjuvant arthritis, rats)
Description: The LD50 values were determined by a standard method from the mortality occurring within 7 days in NMRI (Naval Medical Research Institute) mice (6 animals per dose) after a single intraperitoneal (i.p.) administration.

Q: `COc1ccc2cc(C(C)C(=O)O)ccc2c1` (stereo not shown) [naproxen, 2-(6-methoxy-2-naphthyl)-propionic acid, reference compound] was tested. Which LD50/ED50 quotient did it give?
A: Its LD50/ED50 quotient is 28.6.
